From patent US20080306008 (published 2008)

Key:
[1] = general procedure: Fmoc solid-phase peptide synthesis; Fmoc-Rink resin (4-(2',4'-dimethoxyphenyl-Fmoc-aminomethyl)-phenoxypolystyrene resin, Bachem D-2080; 0.47 mmol/g); HOBt ester; HOAt with DIPEA for Fmoc-Glu(2-phenylisopropyloxy)-OH; settings: whole synthesis, scale of the general procedure 0.10 mmol, hydrochloride
[2] = general procedure: Fmoc solid-phase peptide synthesis; Rink linker-polystyrene; HOBt ester; HOAt with DIPEA for Fmoc-Glu(2-phenylisopropyloxy)-OH; settings: whole synthesis, scale 0.10 mmol, hydrochloride

Substance: 2-[2-(hexadecanoylamino)ethoxy]ethoxyacetyl-His-Ser-Nle-c[Glu-Asn-D-Phe-Arg-Trp-Lys]-NH2
- final HPLC purity ([1]; UV 214 nm): 99% purity
- final HPLC purity ([1]; UV 254 nm): 94% purity
- isolated mass [2]: 21.6 mg
- isolated yield [2]: 13% yield
